No constants are given. Whether binding was seen depends on the method and setting. Binding seen in cells or lysates may run through a third protein. Binding can be weak; no strength is given. Sequences can lack the tags named with a protein.
Target: T1, Flag-DYRK2 (dual-specificity tyrosine-phosphorylation-regulated kinase 2), wild type (human) (UniProt Q92630)
T1 sequence: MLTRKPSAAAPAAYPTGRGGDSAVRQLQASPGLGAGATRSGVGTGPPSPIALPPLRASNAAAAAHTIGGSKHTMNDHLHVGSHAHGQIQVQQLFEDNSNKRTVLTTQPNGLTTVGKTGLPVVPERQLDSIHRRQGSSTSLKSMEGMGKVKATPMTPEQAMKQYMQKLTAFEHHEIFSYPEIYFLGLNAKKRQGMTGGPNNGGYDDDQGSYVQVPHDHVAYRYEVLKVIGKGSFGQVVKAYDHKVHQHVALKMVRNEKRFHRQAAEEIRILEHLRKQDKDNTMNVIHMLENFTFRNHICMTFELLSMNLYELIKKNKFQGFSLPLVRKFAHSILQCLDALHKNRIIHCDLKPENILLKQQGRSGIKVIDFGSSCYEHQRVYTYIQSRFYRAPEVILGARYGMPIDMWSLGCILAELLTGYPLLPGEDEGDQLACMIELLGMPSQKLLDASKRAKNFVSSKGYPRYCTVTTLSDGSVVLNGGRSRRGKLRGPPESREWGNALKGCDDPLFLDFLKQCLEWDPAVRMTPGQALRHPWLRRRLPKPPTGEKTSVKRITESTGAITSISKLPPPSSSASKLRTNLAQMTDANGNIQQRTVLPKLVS
Test: co-IP; HEK-293T co-transfected, MG-132 (10 uM) for the last 12 h; lysis in IP buffer (50 mM Hepes pH 7.5, 50 mM NaCl, 1% Triton X-100, 2 mM EDTA); IP with anti-Flag antibody and protein A/G Sepharose, western blot

Substance: Myc-tagged Notch1-IC (intracellular domain of NOTCH1) (domain or fragment)
- binding: binds

Source: article PMC7320039
